From patent US20090035317A1, “Peptides binding to vascular endothelial growth factor” (priority 2007, published 2009)
These are yes or no findings as the source states them, for the method shown. Some results given as binding are weak or reduced against the parent protein; the word gives no strength.

Sequences of proteins named here, by UniProt entry; tags and fusion partners are left off. A change or cut given only in a name is not applied to a line headed by its entry. A line that says so, or that is headed by a name, gives the form on record, which may keep a tag or linker.
vascular endothelial growth factor (VEGF) (P15692-4, form named): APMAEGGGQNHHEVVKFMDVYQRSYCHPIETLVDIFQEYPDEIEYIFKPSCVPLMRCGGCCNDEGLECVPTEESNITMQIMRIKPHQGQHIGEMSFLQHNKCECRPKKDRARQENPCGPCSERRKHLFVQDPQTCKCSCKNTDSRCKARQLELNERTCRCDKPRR

Key:
[1] = biological target: T1, vascular endothelial growth factor (VEGF) (UniProt P15692-4 27-191, limits assumed, biotinylated); test: flow cytometry, displayed peptide labeled with 10-nM VEGF, off-rate
T1 construct: Soluble biotinylated VEGF used to label cells that display the peptides; also called biotinylated VEGF

[2] = biological target: T1, vascular endothelial growth factor …; test: bacterial display, MACS and FACS sorting with VEGF
[3] = biological target: T1, vascular endothelial growth factor …; test: flow cytometry, displayed peptide, dissociation of VEGF

Row | binding [1] | binding [2] | binding [3] | Binder
1 | binds | binds |  | GPGWWLWDWDNLGARRGGL (peptide, not shown: large carriers) [L2.F3A.10]
2 | binds | binds | binds | NFGYGKWEWDYGKWLEKVG (not shown: CPXopt bacterial display scaffold (carrier)) [L2.F4.04]
